# The supplement of paper PMC4635364
# Counter-ions that a name gives are not always drawn. The list shows a part of the results. Single values are uncertain here, since repeats match poorly.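 Human fetal ventral-midbrain neural progenitor line ReNCell VM, differentiated without mitogens. Images stained for doublecortin (early neurons) or tyrosine hydroxylase (dopaminergic neurons) were scored by blinded raters against untreated wells (0 = no change). Repeats and both raters were averaged, and compounds averaging 2 or higher were picked as hits for retesting.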
# Legend:
# [1] = system: ReNCell VM; assay: neuronal differentiation score (DCX+ cell fraction vs untreated, manual image score) (score (-3 to 3)); higher = more neuronal differentiation; details: 2 uM, 2 weeks
# [2] = system: ReNCell VM; assay: dopaminergic neuron differentiation score (TH+ cell fraction vs untreated, manual image score) (score (0 to 3)); higher = more TH+ dopaminergic neuron differentiation; details: 2 uM, 4 weeks, BDNF 10 ng/ml + GDNF 10 ng/ml
smiles,measurement,setting,value
CN1C(C)(C)CCCC1(C)C [Pempidine tartrate],neuronal differentiation score,[1]; library: Prestwick,inactive: 0
same,dopaminergic neuron differentiation score,[2]; library: Prestwick,inactive: 0
Cc1ccc(/C=C2\CNC/C(=C\c3ccc(C)cc3)C2=O)cc1,neuronal differentiation score,[1]; library: Tocriscreen,inactive: 0
same,dopaminergic neuron differentiation score,[2]; library: Tocriscreen,inactive: 0
COc1cc([S+](C)[O-])ccc1-c1nc2cccnc2[nH]1 (centres undefined) [Sulmazole],neuronal differentiation score,[1]; library: Prestwick,inactive: 0
same,dopaminergic neuron differentiation score,[2]; library: Prestwick,inactive: 0
C[C@@H]1O[C@@H](O[C@H]2C(=O)c3c(O)cc(O)cc3O[C@@H]2c2ccc(O)c(O)c2)[C@H](O)[C@H](O)[C@H]1O [Astilbin],neuronal differentiation score,[1]; library: Phytochemical,inactive: 0
same,dopaminergic neuron differentiation score,[2]; library: Phytochemical,active: 2
O=C1Nc2ccccc2C1=O [Isatine],neuronal differentiation score,[1]; library: Phytochemical,inactive: 0
same,dopaminergic neuron differentiation score,[2]; library: Phytochemical,inactive: 0
C[C@]12CCC(=O)C=C1[C@@H]1C[C@@H]1[C@H]1[C@@H]3[C@@H]4C[C@@H]4[C@@]4(CCC(=O)O4)[C@@]3(C)CC[C@@H]12,neuronal differentiation score,[1]; library: Spectrum,inactive: 1
same,dopaminergic neuron differentiation score,[2]; library: Spectrum,inactive: 0
CC(C(=O)O)c1ccc(N2Cc3ccccc3C2=O)cc1 (centres undefined),neuronal differentiation score,[1]; library: Spectrum,inactive: 0
same,dopaminergic neuron differentiation score,[2]; library: Spectrum,inactive: 0
C[N+]1(C)C[C@H](O)C[C@H]1C(=O)[O-] [Betonicine],neuronal differentiation score,[1]; library: Phytochemical,inactive: 0
same,dopaminergic neuron differentiation score,[2]; library: Phytochemical,inactive: 0
"CC(=O)C(C)=O [2,3-Butanedione]",neuronal differentiation score,[1]; library: LOPAC,inactive: 0
same,dopaminergic neuron differentiation score,[2]; library: LOPAC,inactive: 0
C[C@](N)(Cc1ccc(O)c(O)c1)C(=O)O,neuronal differentiation score,[1]; library: Spectrum,inactive: 0
same,dopaminergic neuron differentiation score,[2]; library: Spectrum,inactive: 0
CC(C)CCC[C@@H](C)[C@H]1CC[C@H]2[C@@H]3CC=C4CC(=O)CC[C@]4(C)[C@H]3CC[C@]12C,neuronal differentiation score,[1]; library: Spectrum,inactive: 0
same,dopaminergic neuron differentiation score,[2]; library: Spectrum,inactive: 0
CC1=C2C(/C=C(\C)C(=O)O)CCC(C)C2C(O)C1 (centres undefined) [valerenolic acid],neuronal differentiation score,[1]; library: Natural,inactive: 0
same,dopaminergic neuron differentiation score,[2]; library: Natural,inactive: 0
COCC(=O)Nc1c(I)c(C(=O)NCC(O)CO)c(I)c(C(=O)N(C)CC(O)CO)c1I (centres undefined) [Iopromide],neuronal differentiation score,[1]; library: Prestwick,inactive: 0
same,dopaminergic neuron differentiation score,[2]; library: Prestwick,inactive: 0
COc1cc(C)nc(-n2nc(C)cc2OC)n1 [Epirizole],neuronal differentiation score,[1]; library: Prestwick,inactive: 0
same,dopaminergic neuron differentiation score,[2]; library: Prestwick,inactive: 0
CC(C)C1C2CCC(C2)C1N (centres undefined),neuronal differentiation score,[1]; library: Tocriscreen,inactive: 0
same,dopaminergic neuron differentiation score,[2]; library: Tocriscreen,inactive: 0
CC(C)CC(N)=O,neuronal differentiation score,[1]; library: Spectrum,inactive: 0
same,dopaminergic neuron differentiation score,[2]; library: Spectrum,inactive: 0
O=C(/C=C/c1ccccc1)c1ccc(O)cc1O,neuronal differentiation score,[1]; library: Spectrum,inactive: 0
same,dopaminergic neuron differentiation score,[2]; library: Spectrum,inactive: 0
O=C(O)/C=C/C(=O)O,neuronal differentiation score,[1]; library: Spectrum,inactive: 0
same,dopaminergic neuron differentiation score,[2]; library: Spectrum,inactive: 0
COc1ccc2cc1Oc1ccc(cc1)C[C@H]1c3c(cc4c(c3Oc3cc5c(cc3OC)CCN(C)[C@@H]5C2)OCO4)CCN1C,neuronal differentiation score,[1]; library: Spectrum,inactive: 0
same,dopaminergic neuron differentiation score,[2]; library: Spectrum,inactive: 0
N=C(N)S/C=C\C(=O)O [ZAPA sulphate],neuronal differentiation score,[1]; library: Tocriscreen,inactive: 0
same,dopaminergic neuron differentiation score,[2]; library: Tocriscreen,inactive: 0
Cc1cn([C@H]2C=C[C@@H](CO)O2)c(=O)[nH]c1=O,neuronal differentiation score,[1]; library: Spectrum,inactive: 0
same,dopaminergic neuron differentiation score,[2]; library: Spectrum,inactive: 1
CCCCOC(=O)c1ccc(O)cc1,neuronal differentiation score,[1]; library: Spectrum,inactive: 0
same,dopaminergic neuron differentiation score,[2]; library: Spectrum,inactive: 0
COc1cc(/C=C/C(=O)CC(=O)/C=C/c2ccc(O)c(OC)c2)ccc1O [curcumin],neuronal differentiation score,[1]; library: Natural,inactive: 0
same,dopaminergic neuron differentiation score,[2]; library: Natural,inactive: 0
FC(F)(F)C(Cl)Br (centres undefined),neuronal differentiation score,[1]; library: Spectrum,inactive: 0
same,dopaminergic neuron differentiation score,[2]; library: Spectrum,inactive: 0
CN(C)CCC(c1ccc(Br)cc1)c1ccccn1 (centres undefined) [Brompheniramine maleate],neuronal differentiation score,[1]; library: Prestwick,inactive: 0
same,dopaminergic neuron differentiation score,[2]; library: Prestwick,inactive: 0
CC(C)C(C)C=CC(C)C1CCC2C3=CC=C4CC(O)CCC4(C)C3CCC21C (centres undefined) [Ergosterine],neuronal differentiation score,[1]; library: Phytochemical,inactive: 0
same,dopaminergic neuron differentiation score,[2]; library: Phytochemical,inactive: 0
O=C1c2c(O)cc(CO)cc2C(OC2OC(CO)C(O)C(O)C2O)c2cccc(OC3OC(CO)C(O)C(O)C3O)c21 (centres undefined) [CASANTHRANOL [cascaroside A shown]],neuronal differentiation score,[1]; library: Spectrum,inactive: 1
same,dopaminergic neuron differentiation score,[2]; library: Spectrum,inactive: 0
COc1ccc2cc([C@H](C)C(=O)O)ccc2c1 [naproxen],neuronal differentiation score,[1]; library: Natural,inactive: 0
same,dopaminergic neuron differentiation score,[2]; library: Natural,inactive: 0
OCC1OC(n2cnc3c(NCCc4ccccc4)ncnc32)C(O)C1O (centres undefined) [N6-2-Phenylethyladenosine],neuronal differentiation score,[1]; library: LOPAC,inactive: 0
same,dopaminergic neuron differentiation score,[2]; library: LOPAC,inactive: 0
CC(=C(CCO)SSCC1CCCO1)N(C=O)Cc1cnc(C)nc1N (stereo in doubt) [Fursultiamine Hydrochloride],neuronal differentiation score,[1]; library: Prestwick,inactive: 0
same,dopaminergic neuron differentiation score,[2]; library: Prestwick,inactive: 0
COc1ccc(C2C(=O)c3ccccc3C2=O)cc1,neuronal differentiation score,[1]; library: Spectrum,inactive: -1
same,dopaminergic neuron differentiation score,[2]; library: Spectrum,inactive: 0
"O=c1oc2ccccc2c(O)c1Cc1c(O)c2ccccc2oc1=O [3,3'-methylene-bis(4-hydroxycoumarin)]",neuronal differentiation score,[1]; library: Phytochemical,inactive: 0
same,dopaminergic neuron differentiation score,[2]; library: Phytochemical,inactive: 0
C[C@@H]1CC[C@@]2(OC1)O[C@H]1C[C@H]3[C@@H]4CC[C@@H]5C[C@@H](O)CC[C@]5(C)[C@H]4CC[C@]3(C)[C@H]1[C@@H]2C,neuronal differentiation score,[1]; library: Spectrum,inactive: 0
same,dopaminergic neuron differentiation score,[2]; library: Spectrum,inactive: 0
C[C@@H]1CC[C@@]2(OC1)O[C@H]1C[C@H]3[C@@H]4CC=C5C[C@@H](O)CC[C@]5(C)[C@H]4CC[C@]3(C)[C@H]1[C@@H]2C [diosgenin],neuronal differentiation score,[1]; library: Natural,active: 3
same,dopaminergic neuron differentiation score,[2]; library: Natural,inactive: 0
O=c1c(O)c(-c2ccc(O)cc2)oc2cc(O)cc(O)c12,neuronal differentiation score,[1]; library: Spectrum,inactive: -1
same,dopaminergic neuron differentiation score,[2]; library: Spectrum,inactive: 0
CCCCCCN(CCCCCC)C(=O)Cc1c(-c2ccc(Cl)cc2)[nH]c2ccc(Cl)cc12,neuronal differentiation score,[1]; library: Tocriscreen,inactive: 0
same,dopaminergic neuron differentiation score,[2]; library: Tocriscreen,inactive: 0
Nc1nc2[nH]cc(CCc3ccc(C(=O)N[C@@H](CCC(=O)O)C(=O)O)cc3)c2c(=O)[nH]1,neuronal differentiation score,[1]; library: Spectrum,inactive: 0
same,dopaminergic neuron differentiation score,[2]; library: Spectrum,inactive: 0

# Retrieved one by one from above (4):
smiles,measurement,setting,value
COc1ccc2cc1Oc1ccc(cc1)C[C@H]1c3c(cc4c(c3Oc3cc5c(cc3OC)CCN(C)[C@@H]5C2)OCO4)CCN1C,dopaminergic neuron differentiation score,[2]; library: Spectrum,inactive: 0
same,neuronal differentiation score,[1]; library: Spectrum,inactive: 0
C[C@@H]1CC[C@@]2(OC1)O[C@H]1C[C@H]3[C@@H]4CC[C@@H]5C[C@@H](O)CC[C@]5(C)[C@H]4CC[C@]3(C)[C@H]1[C@@H]2C,dopaminergic neuron differentiation score,[2]; library: Spectrum,inactive: 0
FC(F)(F)C(Cl)Br (centres undefined),neuronal differentiation score,[1]; library: Spectrum,inactive: 0
